# In the supplement of paper PMC12067093, “Discovery and optimisation of a covalent ligand for TRIM25 and its application to targeted protein ubiquitination” (Chemical Science, 2025):
# Amino acid sequences for entries named in this document (tags omitted). A change or cut given only in a name is not applied to a line headed by its entry.
# UniProt P33992: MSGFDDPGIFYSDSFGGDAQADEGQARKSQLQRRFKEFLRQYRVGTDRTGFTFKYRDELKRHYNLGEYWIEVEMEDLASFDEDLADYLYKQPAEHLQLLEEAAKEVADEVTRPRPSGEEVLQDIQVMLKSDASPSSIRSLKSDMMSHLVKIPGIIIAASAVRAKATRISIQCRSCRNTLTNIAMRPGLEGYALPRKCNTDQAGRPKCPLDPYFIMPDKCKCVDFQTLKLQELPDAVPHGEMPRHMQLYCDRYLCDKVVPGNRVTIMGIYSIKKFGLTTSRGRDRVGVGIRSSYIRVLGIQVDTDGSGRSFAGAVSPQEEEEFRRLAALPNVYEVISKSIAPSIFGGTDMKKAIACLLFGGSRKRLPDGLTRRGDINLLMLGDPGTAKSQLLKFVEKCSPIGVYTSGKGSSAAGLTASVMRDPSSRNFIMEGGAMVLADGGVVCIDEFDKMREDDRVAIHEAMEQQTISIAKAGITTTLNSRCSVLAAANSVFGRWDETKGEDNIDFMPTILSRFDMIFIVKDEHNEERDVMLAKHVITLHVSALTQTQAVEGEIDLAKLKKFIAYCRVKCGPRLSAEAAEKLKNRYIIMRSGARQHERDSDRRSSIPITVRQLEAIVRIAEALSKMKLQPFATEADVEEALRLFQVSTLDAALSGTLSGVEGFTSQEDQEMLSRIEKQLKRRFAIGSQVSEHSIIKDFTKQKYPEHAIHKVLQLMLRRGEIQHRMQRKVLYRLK
# UniProt O75586: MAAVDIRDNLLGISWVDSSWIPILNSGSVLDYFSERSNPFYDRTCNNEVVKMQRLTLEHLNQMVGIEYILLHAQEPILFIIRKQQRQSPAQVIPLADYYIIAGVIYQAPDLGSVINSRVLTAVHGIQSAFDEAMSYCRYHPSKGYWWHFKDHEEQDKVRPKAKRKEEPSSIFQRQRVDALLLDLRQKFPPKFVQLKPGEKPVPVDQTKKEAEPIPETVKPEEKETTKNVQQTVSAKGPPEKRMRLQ
# UniProt P08582: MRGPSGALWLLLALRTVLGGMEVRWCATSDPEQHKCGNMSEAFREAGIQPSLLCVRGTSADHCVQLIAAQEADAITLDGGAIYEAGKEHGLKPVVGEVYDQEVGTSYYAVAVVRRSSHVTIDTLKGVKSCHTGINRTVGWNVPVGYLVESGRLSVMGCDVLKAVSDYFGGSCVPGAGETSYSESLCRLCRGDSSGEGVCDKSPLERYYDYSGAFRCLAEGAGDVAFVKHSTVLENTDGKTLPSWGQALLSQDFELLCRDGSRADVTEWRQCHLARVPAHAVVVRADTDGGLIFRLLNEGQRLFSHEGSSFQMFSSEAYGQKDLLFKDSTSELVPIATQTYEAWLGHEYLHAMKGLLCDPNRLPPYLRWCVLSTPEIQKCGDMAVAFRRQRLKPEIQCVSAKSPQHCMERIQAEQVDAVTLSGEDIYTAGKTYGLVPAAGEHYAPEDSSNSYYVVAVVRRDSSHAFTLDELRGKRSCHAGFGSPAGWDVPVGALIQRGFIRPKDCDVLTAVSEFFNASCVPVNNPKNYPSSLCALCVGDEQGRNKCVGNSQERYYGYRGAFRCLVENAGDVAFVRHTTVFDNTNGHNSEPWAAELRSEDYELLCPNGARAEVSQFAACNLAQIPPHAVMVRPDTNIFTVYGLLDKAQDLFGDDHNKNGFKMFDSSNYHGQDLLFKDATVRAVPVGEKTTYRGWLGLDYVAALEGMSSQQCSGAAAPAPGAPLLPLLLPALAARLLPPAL
# UniProt Q14566: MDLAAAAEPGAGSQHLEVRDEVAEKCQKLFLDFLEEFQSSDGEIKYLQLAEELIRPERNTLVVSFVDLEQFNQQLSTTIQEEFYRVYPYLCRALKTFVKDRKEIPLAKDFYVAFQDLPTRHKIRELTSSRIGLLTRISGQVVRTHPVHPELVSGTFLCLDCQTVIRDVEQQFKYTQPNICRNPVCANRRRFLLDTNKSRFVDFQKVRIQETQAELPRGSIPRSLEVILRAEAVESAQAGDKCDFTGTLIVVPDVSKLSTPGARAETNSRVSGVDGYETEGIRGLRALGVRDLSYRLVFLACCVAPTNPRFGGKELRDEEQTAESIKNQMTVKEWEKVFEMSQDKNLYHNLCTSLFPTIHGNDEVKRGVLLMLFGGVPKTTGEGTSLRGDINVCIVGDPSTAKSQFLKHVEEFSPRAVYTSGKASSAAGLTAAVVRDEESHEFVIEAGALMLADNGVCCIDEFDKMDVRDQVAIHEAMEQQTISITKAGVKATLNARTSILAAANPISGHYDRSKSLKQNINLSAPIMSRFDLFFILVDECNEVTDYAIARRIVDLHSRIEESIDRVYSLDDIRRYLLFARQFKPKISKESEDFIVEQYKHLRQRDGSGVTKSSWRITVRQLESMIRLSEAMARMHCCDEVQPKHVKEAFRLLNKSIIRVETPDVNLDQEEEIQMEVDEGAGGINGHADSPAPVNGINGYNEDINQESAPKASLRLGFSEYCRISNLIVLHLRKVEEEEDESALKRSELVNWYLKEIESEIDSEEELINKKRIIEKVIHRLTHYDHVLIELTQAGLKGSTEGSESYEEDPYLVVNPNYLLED
# UniProt P23368: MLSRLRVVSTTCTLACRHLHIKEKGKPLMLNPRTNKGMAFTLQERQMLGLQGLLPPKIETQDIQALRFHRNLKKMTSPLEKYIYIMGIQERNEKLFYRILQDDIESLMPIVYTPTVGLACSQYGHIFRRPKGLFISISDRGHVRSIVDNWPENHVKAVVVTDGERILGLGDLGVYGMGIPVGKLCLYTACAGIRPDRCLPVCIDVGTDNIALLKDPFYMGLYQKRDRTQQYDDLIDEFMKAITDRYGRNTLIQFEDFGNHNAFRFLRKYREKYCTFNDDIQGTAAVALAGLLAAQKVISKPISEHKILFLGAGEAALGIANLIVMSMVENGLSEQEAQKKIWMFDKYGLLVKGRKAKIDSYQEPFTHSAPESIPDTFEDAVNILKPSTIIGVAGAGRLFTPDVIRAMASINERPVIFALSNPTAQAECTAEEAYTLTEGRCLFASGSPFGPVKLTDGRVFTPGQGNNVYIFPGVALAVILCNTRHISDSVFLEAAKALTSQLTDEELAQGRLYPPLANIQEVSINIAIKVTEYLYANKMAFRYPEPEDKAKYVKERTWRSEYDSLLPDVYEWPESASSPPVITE
# UniProt Q86U44, whole entry, looked up: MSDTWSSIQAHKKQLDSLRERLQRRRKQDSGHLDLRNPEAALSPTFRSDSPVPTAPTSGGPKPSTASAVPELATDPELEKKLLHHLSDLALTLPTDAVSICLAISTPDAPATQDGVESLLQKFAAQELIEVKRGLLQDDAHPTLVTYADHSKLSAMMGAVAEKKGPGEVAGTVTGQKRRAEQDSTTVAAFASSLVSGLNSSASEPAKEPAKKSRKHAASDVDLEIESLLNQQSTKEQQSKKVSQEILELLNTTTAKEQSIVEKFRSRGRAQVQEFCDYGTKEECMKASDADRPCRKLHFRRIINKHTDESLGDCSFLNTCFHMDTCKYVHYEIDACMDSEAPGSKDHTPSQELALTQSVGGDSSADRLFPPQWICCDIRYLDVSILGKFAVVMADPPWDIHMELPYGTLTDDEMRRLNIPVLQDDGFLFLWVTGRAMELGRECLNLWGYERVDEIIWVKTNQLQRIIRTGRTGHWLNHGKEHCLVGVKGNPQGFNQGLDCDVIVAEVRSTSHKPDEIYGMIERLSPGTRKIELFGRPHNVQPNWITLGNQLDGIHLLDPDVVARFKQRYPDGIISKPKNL
# UniProt P50579: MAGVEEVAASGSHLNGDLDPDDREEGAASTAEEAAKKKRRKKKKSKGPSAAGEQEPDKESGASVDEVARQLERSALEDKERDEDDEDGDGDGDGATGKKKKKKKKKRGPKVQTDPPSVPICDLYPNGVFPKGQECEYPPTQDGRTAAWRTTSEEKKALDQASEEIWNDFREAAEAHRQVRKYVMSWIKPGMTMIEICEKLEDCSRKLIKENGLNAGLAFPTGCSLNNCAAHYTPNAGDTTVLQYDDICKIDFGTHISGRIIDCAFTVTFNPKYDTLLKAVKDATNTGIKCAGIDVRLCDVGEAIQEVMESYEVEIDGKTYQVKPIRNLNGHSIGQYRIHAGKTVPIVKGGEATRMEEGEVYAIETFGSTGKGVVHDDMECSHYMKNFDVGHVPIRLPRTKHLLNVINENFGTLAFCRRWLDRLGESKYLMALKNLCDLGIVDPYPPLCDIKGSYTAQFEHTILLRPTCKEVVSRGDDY
# UniProt A2RUB1: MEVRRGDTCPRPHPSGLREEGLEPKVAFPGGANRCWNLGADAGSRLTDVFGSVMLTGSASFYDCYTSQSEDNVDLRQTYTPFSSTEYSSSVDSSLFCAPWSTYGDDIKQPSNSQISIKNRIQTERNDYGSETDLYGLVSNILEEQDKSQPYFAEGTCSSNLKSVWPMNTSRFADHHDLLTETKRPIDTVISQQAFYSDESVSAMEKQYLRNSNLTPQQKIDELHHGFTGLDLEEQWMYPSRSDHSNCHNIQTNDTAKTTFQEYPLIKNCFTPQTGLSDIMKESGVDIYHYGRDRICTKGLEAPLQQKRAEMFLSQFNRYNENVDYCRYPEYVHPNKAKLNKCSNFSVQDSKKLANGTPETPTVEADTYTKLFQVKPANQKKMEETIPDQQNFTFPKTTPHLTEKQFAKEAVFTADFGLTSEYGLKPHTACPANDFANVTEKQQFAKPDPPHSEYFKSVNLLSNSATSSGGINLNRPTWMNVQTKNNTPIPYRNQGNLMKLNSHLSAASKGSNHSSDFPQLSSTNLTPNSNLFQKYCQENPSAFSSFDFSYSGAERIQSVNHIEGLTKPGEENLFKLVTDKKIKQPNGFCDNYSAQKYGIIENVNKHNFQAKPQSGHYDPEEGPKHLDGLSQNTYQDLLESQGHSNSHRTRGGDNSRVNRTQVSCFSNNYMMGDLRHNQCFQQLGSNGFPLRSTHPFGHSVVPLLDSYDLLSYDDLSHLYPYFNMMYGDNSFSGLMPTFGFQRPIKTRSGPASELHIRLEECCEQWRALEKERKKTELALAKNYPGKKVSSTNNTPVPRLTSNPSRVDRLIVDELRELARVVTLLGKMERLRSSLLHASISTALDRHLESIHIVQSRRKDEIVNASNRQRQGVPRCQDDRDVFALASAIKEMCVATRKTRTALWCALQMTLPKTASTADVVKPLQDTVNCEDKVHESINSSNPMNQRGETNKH
# UniProt P49736, whole entry, looked up: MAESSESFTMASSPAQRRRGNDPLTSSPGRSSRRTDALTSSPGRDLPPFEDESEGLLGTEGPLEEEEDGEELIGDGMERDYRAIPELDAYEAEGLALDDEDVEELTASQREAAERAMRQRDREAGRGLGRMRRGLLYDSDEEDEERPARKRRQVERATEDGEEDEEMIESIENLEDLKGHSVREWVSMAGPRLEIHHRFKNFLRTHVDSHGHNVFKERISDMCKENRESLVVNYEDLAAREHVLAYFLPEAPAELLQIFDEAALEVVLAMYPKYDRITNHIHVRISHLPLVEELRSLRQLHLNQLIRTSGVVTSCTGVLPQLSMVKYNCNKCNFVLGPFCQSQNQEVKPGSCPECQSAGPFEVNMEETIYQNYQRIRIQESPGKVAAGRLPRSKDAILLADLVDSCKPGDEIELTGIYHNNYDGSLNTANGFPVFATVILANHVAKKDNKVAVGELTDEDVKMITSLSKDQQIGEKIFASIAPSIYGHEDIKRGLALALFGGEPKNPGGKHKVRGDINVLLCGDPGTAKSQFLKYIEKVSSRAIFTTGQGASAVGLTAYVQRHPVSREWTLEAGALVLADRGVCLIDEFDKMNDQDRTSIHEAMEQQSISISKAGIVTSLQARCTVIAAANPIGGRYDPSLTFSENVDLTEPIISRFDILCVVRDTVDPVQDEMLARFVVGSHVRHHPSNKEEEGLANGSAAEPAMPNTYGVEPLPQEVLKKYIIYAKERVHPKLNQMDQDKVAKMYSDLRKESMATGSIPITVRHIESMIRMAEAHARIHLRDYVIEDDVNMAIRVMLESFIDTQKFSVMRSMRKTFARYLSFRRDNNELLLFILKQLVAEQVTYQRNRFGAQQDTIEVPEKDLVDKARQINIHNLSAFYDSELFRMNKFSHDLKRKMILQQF
# UniProt Q9Y316: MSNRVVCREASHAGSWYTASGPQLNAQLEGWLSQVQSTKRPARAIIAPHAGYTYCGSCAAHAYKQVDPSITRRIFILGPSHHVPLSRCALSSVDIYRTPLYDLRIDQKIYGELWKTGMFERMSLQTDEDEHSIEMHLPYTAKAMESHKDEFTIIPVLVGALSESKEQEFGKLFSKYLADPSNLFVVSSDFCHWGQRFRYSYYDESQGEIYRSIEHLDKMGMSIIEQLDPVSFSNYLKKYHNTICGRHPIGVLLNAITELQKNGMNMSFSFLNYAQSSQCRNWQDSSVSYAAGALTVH
# UniProt O43513: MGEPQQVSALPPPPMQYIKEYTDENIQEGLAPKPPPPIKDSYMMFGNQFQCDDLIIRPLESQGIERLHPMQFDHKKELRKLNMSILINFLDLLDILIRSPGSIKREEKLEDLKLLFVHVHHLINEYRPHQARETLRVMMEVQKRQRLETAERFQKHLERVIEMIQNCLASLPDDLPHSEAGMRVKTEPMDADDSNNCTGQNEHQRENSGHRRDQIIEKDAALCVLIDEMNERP
# This is one part of the list.
# Compound: CC1Cc2ccccc2N1C(=O)C1CCCN(C1)C(=O)CCl (mixture of isomers) [TRIM25 ligand 11 (diastereomer mixture)]
# Assay: probe-labelled cysteine peptide fold change vs DMSO (competition) (log2 fold change); higher = less target engagement (more negative = stronger competition)
# Conditions: THP-1, incubation time: 4 h
# 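Also: competitive chemoproteomic profiling in live THP-1 cells with an iodoacetamide desthiobiotin (IA-DTB) probe, comparing probe-labelled peptide intensities in compound-treated cells against DMSO-treated controls.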
Target,probe-labelled cysteine peptide fold change (10 µM),probe-labelled cysteine peptide fold change (50 µM)
MBTD1_Q05BQ5_288_VSESMQYPFKPCMR (UniProt Q05BQ5),-0.00839,0.0202
MFSD14A_Q96MC6_465_HCGSHSHPHNTQAPGEAK (UniProt Q96MC6),0.0763,-0.38
MDN1_Q9NU22_95_LCVSMSK (UniProt Q9NU22),-0.0424,-0.0583
MCM5_P33992_355_AIACLLFGGSR (UniProt P33992),-0.24,0.175
MDN1_Q9NU22_882_LFACMNPATDVGKR (UniProt Q9NU22),-0.0968,-0.078
MED6_O75586_45_TCNNEVVK (UniProt O75586),-0.032,-0.0585
MDN1_Q9NU22_979_FAASNPCGNIQR (UniProt Q9NU22),0.105,0.078
MDH2_P40926_285_SQETECTYFSTPLLLGK (UniProt P40926),-0.0818,-0.0395
MDN1_Q9NU22_1105_TSLIQWLAAATGNHCVR (UniProt Q9NU22),0.168,0.0543
METAP1_P53582_255_KLVQTTYECLMQAIDAVKPGVR (UniProt P53582),-0.564,-0.516
MCM10_Q7L590_329_DLTQCVSLFLFGEVHK (UniProt Q7L590),0.263,0.179
MCM4_P33991_331_CHTTHSMALIHNR (UniProt P33991),0.0883,-0.0841
MELTF_P08582-2_256_SEEEEGECPAHEEAR (UniProt P08582),0.191,0.0921
MDN1_Q9NU22_2158_CLGEGGK (UniProt Q9NU22),0.105,0.0197
METTL2B_Q6P1Q9_241_CFAFVHDLCDEEK (UniProt Q6P1Q9),0.117,0.0885
MED24_O75448_336_DFTEDVNCAFEFLLK (UniProt O75448),0.119,0.0145
MCL1_Q07820_16_NAVIGLNLYCGGAGLGAGSGGATRPGGR (UniProt Q07820),0.233,0.0883
MCM6_Q14566_158+161_THPVHPELVSGTFLCLDCQTVIR (UniProt Q14566),0.0861,-0.188
MED14_O60244_729_TWVAELVFANCPLNGTSTR (UniProt O60244),-0.376,-0.228
MCM6_Q14566_393_GDINVCIVGDPSTAK (UniProt Q14566),0.0736,0.0283

Target,probe-labelled cysteine peptide fold change (10 µM),probe-labelled cysteine peptide fold change (50 µM)
MED23_Q9ULK4_712_ATHVTDFFTGSDSIQGTWCK (UniProt Q9ULK4),0.148,0.12
ME2_P23368_190_LCLYTACAGIRPDR (UniProt P23368),-0.0206,0.152
MCM3_P25205_407_GVVCIDEFDK (UniProt P25205),-0.155,-0.244
METTL3_Q86U44_500_GNPQGFNQGLDCDVIVAEVR (UniProt Q86U44),-0.0498,-0.0432
METAP2_P50579_416_HLLNVINENFGTLAFCR (UniProt P50579),-0.0483,-0.0481
MEIOC_A2RUB1_875_CQDDRDVFALASAIK (UniProt A2RUB1),-0.0609,-0.188
METTL3_Q86U44_326_HTDESLGDCSFLNTCFHMDTCK (UniProt Q86U44),0.159,0.0527
MED6_O75586_137_VLTAVHGIQSAFDEAMSYCR (UniProt O75586),-0.491,0.141
METAP1_P53582_255_LVQTTYECLMQAIDAVK (UniProt P53582),0.0988,0.265
MCM2_P49736_315_TSGVVTSCTGVLPQLSMVK (UniProt P49736),0.161,-0.0664
MEMO1_Q9Y316_88_CALSSVDIYR (UniProt Q9Y316),0.0273,0.158
MDN1_Q9NU22_2816_LVVECFSQLK (UniProt Q9NU22),0.101,0.0652
MED7_O43513_197_TEPMDADDSNNCTGQNEHQR (UniProt O43513),0.104,-0.344
MCM2_P49736_223_ISDMCK (UniProt P49736),-0.114,-0.146
MDN1_Q9NU22_1394_ALEFGEPVLLVGDTGCGK (UniProt Q9NU22),-0.0161,0.145
METTL18_O95568_196_VLDLGCGSGLLGITAFK (UniProt O95568),0.0383,-0.0127
MED1_Q15648_424_HQVAYNTLIGSCVK (UniProt Q15648),-0.0377,0.186
METTL7B_Q6UX53_79+92_VALLELGCGTGANFQFYPPGCR (UniProt Q6UX53),-0.0513,-0.314
MDN1_Q9NU22_521_HHSWSDSSVGCEQAPEEVSEAR (UniProt Q9NU22),0.399,-0.413

# Part of the list above, set out differently:
Target | probe-labelled cysteine peptide fold change (10 µM) | probe-labelled cysteine peptide fold change (50 µM)
METAP2_P50579_416_HLLNVINENFGTLAFCR (UniProt P50579) | -0.0483 | -0.0481
MCM2_P49736_315_TSGVVTSCTGVLPQLSMVK (UniProt P49736) | 0.161 | -0.0664
